The values below are quoted from earlier work in US7335682B2, “Pharmaceutical compositions and methods for treating immune-response associated diseases of the surface and the anterior segment of the eye” (The Zhongshan Opthalmic Center, priority 2000, dated 2008).

The conditions of the data set: cited from earlier work.

Take `C=CC[C@@H]1/C=C(\C)C[C@H](C)C[C@H](OC)[C@H]2O[C@@](O)(C(=O)C(=O)N3CCCC[C@H]3C(=O)O[C@H](/C(C)=C/[C@@H]3CC[C@@H](O)[C@H](OC)C3)[C@H](C)[C@@H](O)CC1=O)[C@H](C)C[C@@H]2OC.O` [tacrolimus, Tacrolimus]: the “solubility in organic solvents” value (methanol, ethanol, chloroform) is “readily dissolved”. The solubility in water entry (water) is “dissolves poorly”.
